Laboratory results: patent publication US20220257601A1, “INHIBITORS OF PRC1 FOR TREATMENT OF CANCER” (Board of Regents, The University of Texas System, priority 2019, published 2022)
Some results were stated once for a whole list of compounds, not compound by compound.

Molecular target: T1, PRC1 (Homo sapiens, UniProt Q99496)
T1 construct: PC3 cells were exposed to drugs for the indicated hours; endogenous in cells; host or cells: PC3 cells
T1 sequence (Q99496 2-336 limits assumed): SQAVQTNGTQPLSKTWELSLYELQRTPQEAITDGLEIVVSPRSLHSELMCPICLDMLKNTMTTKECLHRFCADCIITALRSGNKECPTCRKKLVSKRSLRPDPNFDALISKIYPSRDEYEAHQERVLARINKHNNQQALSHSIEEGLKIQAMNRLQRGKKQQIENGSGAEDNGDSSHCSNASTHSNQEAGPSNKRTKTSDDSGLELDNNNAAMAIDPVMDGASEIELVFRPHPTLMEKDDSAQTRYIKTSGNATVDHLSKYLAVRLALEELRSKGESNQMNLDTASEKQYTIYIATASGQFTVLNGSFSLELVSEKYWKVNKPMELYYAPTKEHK
Assay: Inhibition of H2Aub (monoubiquitylation of histone H2A) in PC3 cells
Format: cell-based
Settings: data not shown
Method: For immunoblotting, cells were washed with PBS and lysed in RIPA buffer (50 mM Tris-HCl pH 7.4, 150 mM NaCl, 1 mM EDTA, 1% Triton X-100, 1% sodium deoxycholate, and 0.1% SDS) supplemented with protease inhibitors (Calbiochem) and phosphatase inhibitors (PhosSTOP, Roche Life Science). Protein concentrations were measured by using the DC Protein Assay. Total RNA was extracted using the RNeasy Mini kit coupled with RNase-free DNase set (Qiagen) and reverse transcribed with SuperScript III First-Strand Synthesis SuperMix (Invitrogen). cDNA corresponding to approximately 10 ng of starting RNA was used for one reaction. Q-PCR was performed with Taqman Gene Expression Assay (Applied Biosystems). All quantifications were normalized to endogenous GAPDH.
PC3 cells were exposed to drugs for the indicated hours, then harvested using […] EDTA in PBS, and washed once with cold PBS. Nuclear extracts were prepared and histones were extracted using 0.4N sulfuric acid. H2A or ubH2A was measured using the indicated antibodies.

| Compound | Persistence of inhibitory effect |
| --- | --- |
| Nc1ccc(CCN2C(=O)c3c(F)c(F)c(F)c(F)c3C2=O)cc1 [Compound 1] | at least 48 hours |
| COc1cc(Br)c(Nc2nc(-c3c(C)nc4ncccn34)cs2)c(Br)c1 [Compound 3, N-(2,6-dibromo-4-methoxyphenyl)-4-(2-methylimidazo[1,2-a]pyrimidin-3-yl)thiazol-2-amine, reference compound] | at least 48 hours |
